The target in series [1] is T1, protein tyrosine kinase 7 (PTK-7) on HCT-116 cells (UniProt Q13308).
T1 sequence: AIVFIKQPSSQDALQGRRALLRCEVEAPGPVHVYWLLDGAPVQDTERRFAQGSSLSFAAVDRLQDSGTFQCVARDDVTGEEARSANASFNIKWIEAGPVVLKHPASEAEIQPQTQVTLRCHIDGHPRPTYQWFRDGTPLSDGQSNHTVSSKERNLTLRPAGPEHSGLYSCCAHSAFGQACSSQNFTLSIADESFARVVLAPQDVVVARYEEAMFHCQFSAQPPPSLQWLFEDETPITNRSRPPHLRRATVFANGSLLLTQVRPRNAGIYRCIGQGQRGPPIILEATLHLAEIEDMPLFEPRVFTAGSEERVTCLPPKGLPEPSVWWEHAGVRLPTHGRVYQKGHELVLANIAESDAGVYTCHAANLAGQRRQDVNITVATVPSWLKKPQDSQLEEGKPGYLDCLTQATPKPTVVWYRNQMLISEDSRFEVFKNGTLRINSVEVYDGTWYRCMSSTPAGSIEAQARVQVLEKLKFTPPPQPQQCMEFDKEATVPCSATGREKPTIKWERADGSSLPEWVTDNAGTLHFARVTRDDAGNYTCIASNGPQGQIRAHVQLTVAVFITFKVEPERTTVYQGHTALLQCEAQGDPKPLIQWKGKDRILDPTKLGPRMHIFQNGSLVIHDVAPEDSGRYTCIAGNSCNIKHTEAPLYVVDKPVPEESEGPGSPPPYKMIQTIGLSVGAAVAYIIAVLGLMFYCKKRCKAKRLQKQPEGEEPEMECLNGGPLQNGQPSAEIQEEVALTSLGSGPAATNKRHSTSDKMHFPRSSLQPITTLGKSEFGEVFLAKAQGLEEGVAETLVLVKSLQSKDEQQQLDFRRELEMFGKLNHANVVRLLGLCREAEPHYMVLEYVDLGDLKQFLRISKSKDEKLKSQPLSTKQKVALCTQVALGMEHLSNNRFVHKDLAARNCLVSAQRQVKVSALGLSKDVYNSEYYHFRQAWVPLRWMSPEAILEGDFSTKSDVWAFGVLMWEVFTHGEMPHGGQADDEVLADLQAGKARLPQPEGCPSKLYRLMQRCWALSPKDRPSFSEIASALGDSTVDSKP
Briefly: radioligand cell binding (gamma counter). As to conditions: 4 C, 4 h; 5' amino coupled to p-SCN-Bn-NOTA, 68Ga chelated; Whole cells washed in D-PBS with 4.5 g/L glucose and 5 mM MgCl2; 300,000 cells in 200 ul binding buffer (composition and pH not stated), on ice 30 min; protein on the cell surface; label: 68Ga; single-stranded DNA.

For series [2], the target named is protein tyrosine kinase 7 (PTK-7) on CEM cells (UniProt Q13308). Briefly: flow cytometry, cell binding. To be noted: 250 nM aptamer, 5 mM Mg2+, Whole cells washed in D-PBS with 4.5 g/L glucose and 5 mM MgCl2, 300,000 cells in 200 ul binding buffer (composition and pH not stated), on ice 30 min, protein on the cell surface, single-stranded DNA. In general terms: Flow cytometry measures light scatter and fluorescence of single cells or particles in a stream.

Data on 3 sequences can be found in paper PMC10202413.

For at least one entry, the source does not settle the construct or the ends of the probe. Where cells or extracts were used, other partners may take part.

As for “ATCTAACTGCTGCGCCGCCGGGAAAATACTGTACGGTTAGA [68Ga[Ga]-NOTA-SGC8]”, the binding result in series [1] is given as “binds”.

Regarding “ATCTAACTGCTGCGCCGCCGGGAAAATACTGTACGGTTAGA [NOTA-SGC8]”, in series [2] (5' amino coupled to p-SCN-Bn-NOTA), the binding result is “binds”.

In the case of “ATCTAACTGCTGCGCCGCCGGGAAAATACTGTACGGTTAGA [SGC8]”, in series [2] (label: 5' Cy5), the binding result is “binds”.
